Test results taken from publication doi:10.1101/2023.07.10.548302.
These are yes or no findings as the source states them, for the method shown. In cells and extracts the contact can be indirect. Here binding means that the protein was enriched with, or labelled near, the bait; the list need not be complete. Sequences can lack the tags named with a protein.

Sequences of proteins named here, by UniProt entry; tags and fusion partners are left off.
UniProt Q27331: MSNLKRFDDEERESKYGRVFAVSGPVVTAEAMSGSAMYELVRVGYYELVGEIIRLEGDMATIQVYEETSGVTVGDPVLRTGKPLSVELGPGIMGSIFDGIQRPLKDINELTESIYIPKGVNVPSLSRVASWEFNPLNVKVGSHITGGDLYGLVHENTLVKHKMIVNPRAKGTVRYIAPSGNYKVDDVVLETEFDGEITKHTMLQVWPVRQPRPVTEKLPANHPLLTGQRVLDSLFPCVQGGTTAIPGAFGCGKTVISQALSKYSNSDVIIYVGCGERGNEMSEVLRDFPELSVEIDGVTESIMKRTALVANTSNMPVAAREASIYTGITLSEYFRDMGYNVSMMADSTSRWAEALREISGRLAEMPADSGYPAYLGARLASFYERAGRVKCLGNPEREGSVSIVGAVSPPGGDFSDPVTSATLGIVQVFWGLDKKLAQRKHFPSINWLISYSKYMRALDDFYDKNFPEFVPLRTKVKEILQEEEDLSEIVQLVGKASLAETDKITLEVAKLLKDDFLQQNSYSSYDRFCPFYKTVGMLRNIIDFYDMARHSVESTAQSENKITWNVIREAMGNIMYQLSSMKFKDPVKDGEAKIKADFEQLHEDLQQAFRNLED

B1: Git (G protein-coupled receptor kinase interacting ArfGAP), endogenous in embryos (protein, UniProt Q95RG8 1-731)
chain: MCFASSIIEAHRKLFIAPPDLDHSDPATPTISTRSKMPRGKSRLQTEVCGDCGAGDPSWASINRGILLCADCCSVHRSLGRHISIVKSLRQGNWEPSVLNFVNSLNAHGANSVWEHHLLDGSTNSTGGKHVPRWRKPTPKDALHPTKSDFIKAKHVNLTFVLKPSLQDDDDGNGSAGCLEQELSRQLHASVRTSNLETSLRFLVQGADPNYYHEDKLSTPLHMAAKFGQASQIEMLLIYGADVNALDGNGMTPLELARANNHNTIAERLLDAMYDVTDRIITFLGGKKPDHASGRHMIIPDANGADISEQLKIARGKLQLVPNKMFEELVMDLYDEVDRRECEAIWSTSTLNADHATVPFLPANPFLSATRNQGRQKLARFNRAEFTGLLTDVLVDAMRRQNMANLRPMDAPVAGHQSLQSLPYANNSMLLGSFEQGGHDPNLSDDEPIYDPVASDDDYAPVPPMAQQAIVHTPPRSANSHNEMETLRKQLNDYKSEINQLKNVVQMLSSENTQLKSKFSSASNNSVYDEPLRIDLSLSSPDTEHEPLSLPEGGTANGESGSSNDSSNQSTIKRPASMYERRLVPNVAKGNTDIRNTTSMYQMAGDGKPFGEEVKVRSDLVTRRLKELIRAMQPVPEDQKQSIAPHGELIRSAVTDLIALYANLPPNASDPSRETLKLLTRQNILIQHECENLQKAIEADDKQAIQKNTLEVRDCAFHIASAIKTLVLQFY

Biological target: T1, Vap33-YFP (endogenously YFP-tagged Vap33) (Drosophila (endogenous in embryos)) (UniProt Q9W4N8)
T1 sequence: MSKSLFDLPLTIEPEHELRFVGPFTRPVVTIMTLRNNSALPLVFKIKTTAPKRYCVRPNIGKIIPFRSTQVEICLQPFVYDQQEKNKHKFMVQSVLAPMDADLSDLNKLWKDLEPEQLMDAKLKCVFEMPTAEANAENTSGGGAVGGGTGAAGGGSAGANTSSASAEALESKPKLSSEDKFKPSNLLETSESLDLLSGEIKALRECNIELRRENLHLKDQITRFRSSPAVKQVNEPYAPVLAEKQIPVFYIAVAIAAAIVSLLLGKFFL
Assay: affinity purification with mass spectrometry

| Molecule | binding |
| --- | --- |
| Vha68-2 (V-ATPase component) (from UniProt Q27331 1-614) | binds |
| B1 | binds |
